Results are given in words; binding and its absence hold for the method and conditions named. In cells and extracts the contact can be indirect. Some entries that bind do so weakly or less than the wild type. Sequences can lack the tags named with a protein.

The target in the assay is Flag-RBM10 (UniProt P98175). As to the kind of experiment: co-IP; co-IP-WB of mutant and wild-type RBM10 (SI Appendix, Fig. S10); cells and tags not shown.

B1: GFP-RBM10-I316F (protein, UniProt P98175 1-930)
chain: MEYERRGGRGDRTGRYGATDRSQDDGGENRSRDHDYRDMDYRSYPREYGSQEGKHDYDDSSEEQSAEDSYEASPGSETQRRRRRRHRHSPTGPPGFPRDGDYRDQDYRTEQGEEEEEEEDEEEEEKASNIVMLRMLPQAATEDDIRGQLQSHGVQAREVRLMRNKSSGQSRGFAFVEFSHLQDATRWMEANQHSLNILGQKVSMHYSDPKPKINEDWLCNKCGVQNFKRREKCFKCGVPKSEAEQKLPLGTRLDQQTLPLGGRELSQGLLPLPQPYQAQGVLASQALSQGSEPSSENANDTIILRNLNPHSTMDSFLGALAPYAVLSSSNVRVIKDKQTQLNRGFAFIQLSTIVEAAQLLQILQALHPPLTIDGKTINVEFAKGSKRDMASNEGSRISAASVASTAIAAAQWAISQASQGGEGTWATSEEPPVDYSYYQQDEGYGNSQGTESSLYAHGYLKGTKGPGITGTKGDPTGAGPEASLEPGADSVSMQAFSRAQPGAAPGIYQQSAEASSSQGTAANSQSYTIMSPAVLKSELQSPTHPSSALPPATSPTAQESYSQYPVPDVSTYQYDETSGYYYDPQTGLYYDPNSQYYYNAQSQQYLYWDGERRTYVPALEQSADGHKETGAPSKEGKEKKEKHKTKTAQQIAKDMERWARSLNKQKENFKNSFQPISSLRDDERRESATADAGYAILEKKGALAERQHTSMDLPKLASDDRPSPPRGLVAAYSGESDSEEEQERGGPEREEKLTDWQKLACLLCRRQFPSKEALIRHQQLSGLHKQNLEIHRRAHLSENELEALEKNDMEQMKYRDRAAERREKYGIPEPPEPKRRKYGGISTASVDFEQPTRDGLGSDNIGSRMLQAMGWKEGSGLGRKKQGIVTPIEAQTRVRGSGLGARGSSYGVTSTESYKETLHKTMVTRFNEAQ
In the case of B1, the binding result is recorded as “binds”.

These data come from publication PMC10710042.
